The other results are listed elsewhere or left out.
Legend:
Experiment in all cases: log2 fold change, soluble protein after heating vs DMSO (PISA); higher = thermal stabilisation; K562 lysate, 10 uM; active = over 0.2 and 3.5 SD of the protein, either way, in both replicates (recomputed)
[1] = compound: CCCS(=O)(=O)Nc1ccc(F)c(C(=O)c2c[nH]c3ncc(-c4ccc(Cl)cc4)cc23)c1F [vemurafenib]
Outline: (§1)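 Quantification was by TMTpro 16plex LC-MS/MS with equalised channel sums, applied to the supernatant after 21,000xg for 90 min. Samples were crude K562 extract at 1 mg/mL protein in PBS pH 7.4 with 1 mM MgCl2, treated with 10 μM compound for 30 min, heated for 3 min across 48°C-58°C, pooled and brought to 0.5% NP-40 at 4°C. Values are log-two fold changes in thermal stability relative to solvent controls, from duplicates.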

Sequences of proteins named here, by UniProt entry; tags and fusion partners are left off. A change or cut given only in a name is not applied to a line headed by its entry.
UniProt Q96GV9: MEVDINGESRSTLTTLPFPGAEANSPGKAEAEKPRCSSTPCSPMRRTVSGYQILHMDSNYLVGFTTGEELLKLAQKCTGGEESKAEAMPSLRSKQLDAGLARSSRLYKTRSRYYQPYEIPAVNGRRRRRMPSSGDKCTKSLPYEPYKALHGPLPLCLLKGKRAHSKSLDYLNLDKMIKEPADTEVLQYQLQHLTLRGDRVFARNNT
UniProt Q9UFG5: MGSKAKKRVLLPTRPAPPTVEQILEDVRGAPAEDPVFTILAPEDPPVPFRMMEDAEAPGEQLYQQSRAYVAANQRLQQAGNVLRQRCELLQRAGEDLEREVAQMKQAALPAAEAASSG
UniProt Q96MH7: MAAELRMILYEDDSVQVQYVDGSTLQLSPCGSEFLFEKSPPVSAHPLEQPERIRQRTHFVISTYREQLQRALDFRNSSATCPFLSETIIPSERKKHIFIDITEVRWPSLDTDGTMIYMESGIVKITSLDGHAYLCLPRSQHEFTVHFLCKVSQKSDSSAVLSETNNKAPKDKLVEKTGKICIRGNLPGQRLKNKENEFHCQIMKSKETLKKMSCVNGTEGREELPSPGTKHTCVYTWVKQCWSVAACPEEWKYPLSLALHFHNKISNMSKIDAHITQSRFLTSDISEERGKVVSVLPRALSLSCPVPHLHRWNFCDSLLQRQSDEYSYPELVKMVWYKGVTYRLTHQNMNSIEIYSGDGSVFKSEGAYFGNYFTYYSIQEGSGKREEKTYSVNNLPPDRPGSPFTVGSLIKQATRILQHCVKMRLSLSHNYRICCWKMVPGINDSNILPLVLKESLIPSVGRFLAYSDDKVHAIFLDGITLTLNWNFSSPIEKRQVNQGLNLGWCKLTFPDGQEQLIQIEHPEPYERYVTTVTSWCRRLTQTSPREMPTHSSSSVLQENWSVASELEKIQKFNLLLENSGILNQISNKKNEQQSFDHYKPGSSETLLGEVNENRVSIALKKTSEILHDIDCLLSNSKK
UniProt Q6P1S2: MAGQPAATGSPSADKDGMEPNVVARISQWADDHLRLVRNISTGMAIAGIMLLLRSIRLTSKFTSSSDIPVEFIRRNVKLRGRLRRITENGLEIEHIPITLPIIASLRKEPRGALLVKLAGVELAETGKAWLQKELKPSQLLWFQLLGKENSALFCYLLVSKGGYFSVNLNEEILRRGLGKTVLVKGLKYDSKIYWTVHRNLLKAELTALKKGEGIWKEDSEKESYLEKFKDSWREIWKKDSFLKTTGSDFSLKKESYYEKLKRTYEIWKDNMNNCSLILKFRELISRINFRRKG
UniProt Q9P1Y5: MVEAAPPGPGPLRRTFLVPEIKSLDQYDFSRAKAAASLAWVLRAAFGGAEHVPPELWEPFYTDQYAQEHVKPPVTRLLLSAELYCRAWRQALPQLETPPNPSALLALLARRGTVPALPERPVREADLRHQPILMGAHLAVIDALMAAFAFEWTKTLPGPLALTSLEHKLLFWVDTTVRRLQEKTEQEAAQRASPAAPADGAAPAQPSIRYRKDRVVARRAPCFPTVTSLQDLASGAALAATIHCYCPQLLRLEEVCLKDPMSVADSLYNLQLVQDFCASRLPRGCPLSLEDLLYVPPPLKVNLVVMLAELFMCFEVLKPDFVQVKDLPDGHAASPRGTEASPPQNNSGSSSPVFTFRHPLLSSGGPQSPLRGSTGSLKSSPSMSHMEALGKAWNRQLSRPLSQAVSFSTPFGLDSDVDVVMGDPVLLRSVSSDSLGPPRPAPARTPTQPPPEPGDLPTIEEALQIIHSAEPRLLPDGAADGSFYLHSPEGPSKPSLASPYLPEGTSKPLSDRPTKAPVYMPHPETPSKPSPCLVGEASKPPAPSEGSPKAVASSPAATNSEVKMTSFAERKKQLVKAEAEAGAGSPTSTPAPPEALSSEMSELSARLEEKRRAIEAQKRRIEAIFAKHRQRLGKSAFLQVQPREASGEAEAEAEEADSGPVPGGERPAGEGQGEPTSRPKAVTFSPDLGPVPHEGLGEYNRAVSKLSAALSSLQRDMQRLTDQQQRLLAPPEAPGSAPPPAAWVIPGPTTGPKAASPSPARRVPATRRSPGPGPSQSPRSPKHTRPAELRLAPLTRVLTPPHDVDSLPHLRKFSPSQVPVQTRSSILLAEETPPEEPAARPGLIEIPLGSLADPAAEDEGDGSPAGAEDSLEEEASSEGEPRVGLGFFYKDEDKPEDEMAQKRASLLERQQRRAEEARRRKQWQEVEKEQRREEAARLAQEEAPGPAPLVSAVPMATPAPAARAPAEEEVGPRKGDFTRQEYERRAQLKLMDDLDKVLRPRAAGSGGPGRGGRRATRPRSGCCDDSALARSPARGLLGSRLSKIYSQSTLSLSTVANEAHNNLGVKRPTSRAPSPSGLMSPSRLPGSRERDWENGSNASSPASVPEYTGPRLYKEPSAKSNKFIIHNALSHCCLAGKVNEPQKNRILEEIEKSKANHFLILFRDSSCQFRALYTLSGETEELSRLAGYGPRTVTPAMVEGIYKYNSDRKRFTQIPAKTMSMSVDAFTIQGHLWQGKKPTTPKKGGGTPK
UniProt Q9BX69: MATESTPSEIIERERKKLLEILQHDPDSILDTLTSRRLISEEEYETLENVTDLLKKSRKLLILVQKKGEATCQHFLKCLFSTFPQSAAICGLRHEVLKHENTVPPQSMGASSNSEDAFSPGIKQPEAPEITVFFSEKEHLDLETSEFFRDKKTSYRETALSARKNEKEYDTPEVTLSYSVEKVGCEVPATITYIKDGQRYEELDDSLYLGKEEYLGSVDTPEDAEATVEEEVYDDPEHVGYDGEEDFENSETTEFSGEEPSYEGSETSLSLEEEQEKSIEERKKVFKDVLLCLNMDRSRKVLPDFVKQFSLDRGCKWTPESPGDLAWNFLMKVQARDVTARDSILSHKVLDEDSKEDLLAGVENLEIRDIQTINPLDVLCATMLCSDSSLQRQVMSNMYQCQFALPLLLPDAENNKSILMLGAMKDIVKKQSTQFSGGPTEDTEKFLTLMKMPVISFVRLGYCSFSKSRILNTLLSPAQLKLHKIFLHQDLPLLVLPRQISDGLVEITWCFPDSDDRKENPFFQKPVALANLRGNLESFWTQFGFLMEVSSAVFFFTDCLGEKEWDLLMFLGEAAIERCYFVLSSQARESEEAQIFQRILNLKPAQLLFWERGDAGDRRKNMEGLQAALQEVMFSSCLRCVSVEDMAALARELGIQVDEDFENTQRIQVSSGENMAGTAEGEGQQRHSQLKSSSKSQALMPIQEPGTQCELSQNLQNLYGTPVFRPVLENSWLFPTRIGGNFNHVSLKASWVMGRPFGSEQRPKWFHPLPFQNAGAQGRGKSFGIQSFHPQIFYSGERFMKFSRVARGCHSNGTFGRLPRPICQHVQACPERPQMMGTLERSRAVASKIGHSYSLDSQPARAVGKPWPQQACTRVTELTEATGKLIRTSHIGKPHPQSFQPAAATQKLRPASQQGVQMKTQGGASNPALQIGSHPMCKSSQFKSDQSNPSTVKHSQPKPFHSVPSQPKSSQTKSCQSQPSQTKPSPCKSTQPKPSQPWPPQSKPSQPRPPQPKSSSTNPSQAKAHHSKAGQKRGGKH
UniProt Q86VG3: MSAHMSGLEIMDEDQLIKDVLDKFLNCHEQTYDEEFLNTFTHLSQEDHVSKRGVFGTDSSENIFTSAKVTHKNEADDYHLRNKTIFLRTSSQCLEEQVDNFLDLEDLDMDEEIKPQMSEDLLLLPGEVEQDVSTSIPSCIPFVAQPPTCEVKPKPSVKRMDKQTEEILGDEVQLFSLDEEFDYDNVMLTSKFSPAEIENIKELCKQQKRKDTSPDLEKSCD
UniProt Q99622: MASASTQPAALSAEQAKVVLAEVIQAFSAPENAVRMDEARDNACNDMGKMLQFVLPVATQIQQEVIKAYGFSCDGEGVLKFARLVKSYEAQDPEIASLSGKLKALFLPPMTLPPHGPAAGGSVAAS
UniProt Q13554, whole entry, looked up: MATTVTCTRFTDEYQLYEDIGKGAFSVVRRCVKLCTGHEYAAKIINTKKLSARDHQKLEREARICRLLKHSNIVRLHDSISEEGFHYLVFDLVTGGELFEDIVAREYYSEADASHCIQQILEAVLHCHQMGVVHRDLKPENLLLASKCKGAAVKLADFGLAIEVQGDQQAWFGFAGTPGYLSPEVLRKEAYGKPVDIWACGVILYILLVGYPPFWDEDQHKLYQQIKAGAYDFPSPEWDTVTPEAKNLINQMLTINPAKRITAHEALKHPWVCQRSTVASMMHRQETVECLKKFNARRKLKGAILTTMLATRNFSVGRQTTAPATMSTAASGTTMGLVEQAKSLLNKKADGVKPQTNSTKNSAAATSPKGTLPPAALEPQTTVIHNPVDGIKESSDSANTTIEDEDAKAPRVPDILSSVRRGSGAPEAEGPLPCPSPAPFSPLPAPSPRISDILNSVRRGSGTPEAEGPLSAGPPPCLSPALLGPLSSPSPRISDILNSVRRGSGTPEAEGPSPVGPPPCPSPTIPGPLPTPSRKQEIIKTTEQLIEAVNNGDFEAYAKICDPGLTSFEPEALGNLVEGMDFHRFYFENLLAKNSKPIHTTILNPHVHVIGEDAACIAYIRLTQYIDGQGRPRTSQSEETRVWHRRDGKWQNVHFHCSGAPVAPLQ
UniProt Q9NQ89: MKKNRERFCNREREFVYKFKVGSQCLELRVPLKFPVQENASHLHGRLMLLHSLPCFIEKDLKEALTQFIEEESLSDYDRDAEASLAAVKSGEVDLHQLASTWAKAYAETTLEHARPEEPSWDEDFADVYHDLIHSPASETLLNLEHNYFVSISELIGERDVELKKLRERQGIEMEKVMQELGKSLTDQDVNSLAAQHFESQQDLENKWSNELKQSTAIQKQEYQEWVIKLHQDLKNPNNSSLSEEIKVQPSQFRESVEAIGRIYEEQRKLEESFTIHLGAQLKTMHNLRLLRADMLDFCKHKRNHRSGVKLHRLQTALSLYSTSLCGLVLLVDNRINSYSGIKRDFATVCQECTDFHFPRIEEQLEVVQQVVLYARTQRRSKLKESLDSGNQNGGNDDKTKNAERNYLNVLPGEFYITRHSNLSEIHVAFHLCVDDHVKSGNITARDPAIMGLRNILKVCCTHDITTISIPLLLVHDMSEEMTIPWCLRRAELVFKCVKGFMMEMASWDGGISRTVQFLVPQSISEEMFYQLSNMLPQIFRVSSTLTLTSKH
UniProt Q08AD1: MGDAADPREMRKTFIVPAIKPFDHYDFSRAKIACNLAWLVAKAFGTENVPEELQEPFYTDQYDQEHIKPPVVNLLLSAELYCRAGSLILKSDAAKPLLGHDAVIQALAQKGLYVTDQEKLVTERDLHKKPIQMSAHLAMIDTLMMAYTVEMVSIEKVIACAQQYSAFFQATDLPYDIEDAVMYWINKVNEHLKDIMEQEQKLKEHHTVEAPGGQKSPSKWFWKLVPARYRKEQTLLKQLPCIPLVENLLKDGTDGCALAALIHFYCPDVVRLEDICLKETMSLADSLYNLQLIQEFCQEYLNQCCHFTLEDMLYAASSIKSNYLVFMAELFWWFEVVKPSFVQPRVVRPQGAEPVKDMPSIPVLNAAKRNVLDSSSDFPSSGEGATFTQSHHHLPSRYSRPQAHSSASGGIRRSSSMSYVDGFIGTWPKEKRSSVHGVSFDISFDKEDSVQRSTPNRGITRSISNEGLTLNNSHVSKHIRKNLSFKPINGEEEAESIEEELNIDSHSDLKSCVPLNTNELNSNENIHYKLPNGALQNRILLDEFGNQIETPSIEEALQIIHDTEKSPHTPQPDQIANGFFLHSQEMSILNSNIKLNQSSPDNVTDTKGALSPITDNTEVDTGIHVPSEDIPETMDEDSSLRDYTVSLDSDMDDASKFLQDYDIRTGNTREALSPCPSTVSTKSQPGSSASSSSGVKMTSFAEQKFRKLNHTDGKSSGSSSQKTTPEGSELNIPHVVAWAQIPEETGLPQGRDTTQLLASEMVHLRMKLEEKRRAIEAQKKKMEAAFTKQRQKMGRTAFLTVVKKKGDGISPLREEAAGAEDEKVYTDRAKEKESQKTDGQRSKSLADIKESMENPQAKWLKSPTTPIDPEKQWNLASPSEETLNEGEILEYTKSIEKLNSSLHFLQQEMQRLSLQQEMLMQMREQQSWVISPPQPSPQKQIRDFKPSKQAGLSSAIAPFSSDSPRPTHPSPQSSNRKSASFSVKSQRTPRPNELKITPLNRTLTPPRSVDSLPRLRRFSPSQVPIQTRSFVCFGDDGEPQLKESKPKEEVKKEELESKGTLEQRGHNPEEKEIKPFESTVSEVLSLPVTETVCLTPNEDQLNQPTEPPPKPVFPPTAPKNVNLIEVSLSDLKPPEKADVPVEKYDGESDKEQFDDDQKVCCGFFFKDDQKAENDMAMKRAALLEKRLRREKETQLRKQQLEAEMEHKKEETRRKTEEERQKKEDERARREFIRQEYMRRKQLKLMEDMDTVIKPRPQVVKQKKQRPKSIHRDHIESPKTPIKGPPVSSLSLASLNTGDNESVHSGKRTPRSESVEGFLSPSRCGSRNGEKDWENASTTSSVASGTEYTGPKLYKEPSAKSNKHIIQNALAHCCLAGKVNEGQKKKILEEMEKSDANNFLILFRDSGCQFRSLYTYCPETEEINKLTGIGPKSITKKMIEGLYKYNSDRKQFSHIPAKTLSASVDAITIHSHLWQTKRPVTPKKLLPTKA

[2] = compound: CCCS(=O)(=O)Nc1ccc(F)c(C(=O)c2c[nH]c3ncc(Cl)cc23)c1F
Outline: as §1

[3] = compound: CCN(CCCOc1ccc2c(Nc3cc(CC(=O)Nc4cccc(F)c4)[nH]n3)ncnc2c1)CCOP(=O)(O)O [barasertib]
Outline: as §1

[4] = compound: CC[C@@H]1C(=O)N(C)c2cnc(Nc3ccc(C(=O)NC4CCN(C)CC4)cc3OC)nc2N1C1CCCC1
Outline: as §1

[5] = compound: CC[C@@H]1C(=O)N(C)c2cnc(Nc3ccc(C(=O)N[C@H]4CC[C@H](N5CCN(CC6CC6)CC5)CC4)cc3OC)nc2N1C(C)C [volasertib]
Outline: as §1

[6] = compound: CCn1c(C(=O)N(C2CC2)C2CC2)cc2c3c(ncn3C)c(Nc3cc(C)n(C)n3)nc21
Outline: as §1

[7] = compound: CCn1cc(-c2ccnc3[nH]c(-c4cccc(CN(C)C)c4)cc23)c(-c2ccc(NC(=O)N(C)C)cc2)n1
Outline: as §1

[8] = compound: CN1CCC(CNc2ccc3ncc(-c4cccc(OC(F)(F)F)c4)n3n2)CC1
Outline: as §1

[9] = compound: CN1CCN(CCOc2cc(OC3CCOCC3)c3c(Nc4c(Cl)ccc5c4OCO5)ncnc3c2)CC1 [saracatinib]
Outline: as §1

[10] = compound: CN1CCN(c2nc(C3=C(c4c[nH]c5ccccc45)C(=O)NC3=O)c3ccccc3n2)CC1 [sotrastaurin]
Outline: as §1

[11] = compound: CN1CC[C@H](c2c(O)cc(O)c3c(=O)cc(-c4ccccc4Cl)oc23)[C@H](O)C1 [alvocidib]
Outline: as §1

[12] = compound: CN1CCc2c(c3ccccc3n2Cc2ccc(C(=O)NO)cc2)C1 [Tubastatin A]
Outline: as §1

[13] = compound: CNC(=O)C1=CC=CC=C1NC2=NC(=NC=C2Cl)NC3=C(C=C(C=C3)N4CCOCC4)OC
Outline: as §1

[14] = compound: CNC(=O)c1ccc(Nc2ncc(C(F)(F)F)c(NCc3nccnc3N(C)S(C)(=O)=O)n2)cc1 [defactinib]
Outline: as §1

[15] = compound: CNc1nc(-c2ccc3c(N)n[nH]c3c2)cc(N2C[C@@H](C(=O)NC3CCCCC3)CC[C@H]2C)n1
Outline: as §1

[16] = compound: COC(=O)N[C@@H](C)CNc1nccc(-c2cn(C(C)C)nc2-c2cc(Cl)cc(NS(C)(=O)=O)c2F)n1 [encorafenib]
Outline: as §1

[17] = compound: COC(=O)[C@H](CCSC)NC(=O)C1=C(C=C(C=C1)NC[C@H](CS)N)C2=CC=CC=C2
Outline: as §1

[18] = compound: COc1cc(Nc2ncc3c(n2)-c2ccc(Cl)cc2C(c2c(F)cccc2OC)=NC3)ccc1C(=O)O [alisertib]
Outline: as §1

[19] = compound: COc1cc2nc(-c3cc(F)ccc3O)nc(N[C@@H]3CNC[C@H]3C(C)(C)O)c2cc1OC
Outline: as §1

[20] = compound: COc1cc2ncnc(Nc3ccc(F)c(Cl)c3)c2cc1OCCCN1CCOCC1 [gefitinib]
Outline: as §1

Measured: log2 fold change

C12orf29 (UniProt Q8N999)
inactive: [1] 0.089 | [2] -0.027 | [3] -0.026 | [4] -0.026 | [5] -0.098 | [6] -0.009 | [7] -0.027 | [8] 0.022 | [9] 0.016 | [10] 0.024 | [11] -0.047 | [12] -0.039 | [13] 0.011 | [14] -0.016 | [15] 0.034 | [16] 0.042 | [17] 0.032 | [18] -0.02 | [19] -0.023 | [20] 0.065

C19orf53 (UniProt Q9UNZ5)
inactive: [1] -0.104 | [2] -0.03 | [3] -0.02 | [4] 0.054 | [5] -0.05 | [6] -0.017 | [7] 0.091 | [8] -0.035 | [9] 0.008 | [10] 0.042 | [11] 0.032 | [12] -0.025 | [13] -0.056 | [14] -0.01 | [15] 0.103 | [16] -0.017 | [17] -0.041 | [18] 0.004 | [19] -0.068 | [20] 0.021

CA2 (UniProt P00918)
inactive: [1] 0.075 | [2] 0.036 | [3] -0.019 | [4] 0.09 | [5] 0.058 | [6] -0.024 | [9] -0.046 | [10] -0.007 | [12] 0.138 | [13] -0.036 | [14] 0.124 | [15] 0.328 | [16] 0.06 | [17] -0.014 | [18] -0.031 | [19] -0.009 | [20] 0.04

CA8 (UniProt P35219)
inactive: [1] -0.017 | [2] 0.038 | [3] -0.01 | [4] 0.023 | [5] -0.026 | [6] -0.002 | [7] -0.003 | [8] 0.042 | [9] -0.005 | [10] -0.005 | [11] 0.042 | [12] -0.035 | [13] 0.023 | [14] -0.021 | [15] -0.01 | [16] -0.012 | [17] -0.011 | [18] 0.02 | [19] 0.01 | [20] -0.026

C5orf30 (UniProt Q96GV9)
inactive: [1] 0.013 | [3] 0.08 | [4] 0.091 | [6] 0.036 | [7] 0.003 | [8] -0.05 | [9] -0.025 | [10] 0.034 | [11] 0.052 | [12] 0.11 | [13] -0.004 | [14] -0.017 | [15] -0.137 | [16] -0.035 | [17] 0.094 | [18] -0.059 | [20] -0.042

CAND1 (UniProt F5H6I6)
inactive: [2] 0.053 | [3] 0.246 | [4] 0.406 | [5] 0.01 | [6] -0.12 | [9] -0.028 | [10] -0.028 | [12] 0.082 | [13] 0.036 | [15] 0.119 | [16] -0.072 | [17] 0.108 | [18] -0.273 | [19] 0.027 | [20] -0.061

C6orf136 isoform 4 (UniProt Q5SQH8)
inactive: [1] -0.228 | [2] -0.114 | [4] 0.178 | [5] -0.031 | [6] 0.078 | [9] -0.103 | [12] -0.145 | [13] 0.048 | [14] 0.046 | [15] 0.259 | [16] -0.102 | [17] 0.035 | [19] -0.01

C19orf25 (UniProt Q9UFG5)
inactive: [1] 0.168 | [2] -0.05 | [3] -0.014 | [5] 0.024 | [6] -0.002 | [7] 0.075 | [8] -0.114 | [9] -0.017 | [10] 0.009 | [11] 0.056 | [12] 0.057 | [13] 0.153 | [14] 0.049 | [15] 0.137 | [18] 0.014 | [19] 0 | [20] -0.106

C12orf60 (UniProt Q5U649)
inactive: [1] -0.374 | [6] 0.38 | [9] -0.038 | [10] 0.097 | [12] 0.006 | [13] 0.05 | [14] -0.07 | [15] 0.022 | [18] -0.126 | [20] 0.02

C5orf34 (UniProt Q96MH7)
inactive: [1] 0 | [4] 0.015 | [9] 0.127 | [13] -0.18 | [14] -0.251 | [15] -0.056 | [16] 0.138 | [17] 0.074

Seven successive records from above:
CA8 (UniProt P35219)
inactive: [1] -0.017 | [2] 0.038 | [3] -0.01 | [4] 0.023 | [5] -0.026 | [6] -0.002 | [7] -0.003 | [8] 0.042 | [9] -0.005 | [10] -0.005 | [11] 0.042 | [12] -0.035 | [13] 0.023 | [14] -0.021 | [15] -0.01 | [16] -0.012 | [17] -0.011 | [18] 0.02 | [19] 0.01 | [20] -0.026

C5orf30 (UniProt Q96GV9)
inactive: [1] 0.013 | [3] 0.08 | [4] 0.091 | [6] 0.036 | [7] 0.003 | [8] -0.05 | [9] -0.025 | [10] 0.034 | [11] 0.052 | [12] 0.11 | [13] -0.004 | [14] -0.017 | [15] -0.137 | [16] -0.035 | [17] 0.094 | [18] -0.059 | [20] -0.042

CAND1 (UniProt F5H6I6)
inactive: [2] 0.053 | [3] 0.246 | [4] 0.406 | [5] 0.01 | [6] -0.12 | [9] -0.028 | [10] -0.028 | [12] 0.082 | [13] 0.036 | [15] 0.119 | [16] -0.072 | [17] 0.108 | [18] -0.273 | [19] 0.027 | [20] -0.061

C6orf136 isoform 4 (UniProt Q5SQH8)
inactive: [1] -0.228 | [2] -0.114 | [4] 0.178 | [5] -0.031 | [6] 0.078 | [9] -0.103 | [12] -0.145 | [13] 0.048 | [14] 0.046 | [15] 0.259 | [16] -0.102 | [17] 0.035 | [19] -0.01

C19orf25 (UniProt Q9UFG5)
inactive: [1] 0.168 | [2] -0.05 | [3] -0.014 | [5] 0.024 | [6] -0.002 | [7] 0.075 | [8] -0.114 | [9] -0.017 | [10] 0.009 | [11] 0.056 | [12] 0.057 | [13] 0.153 | [14] 0.049 | [15] 0.137 | [18] 0.014 | [19] 0 | [20] -0.106

C12orf60 (UniProt Q5U649)
inactive: [1] -0.374 | [6] 0.38 | [9] -0.038 | [10] 0.097 | [12] 0.006 | [13] 0.05 | [14] -0.07 | [15] 0.022 | [18] -0.126 | [20] 0.02

C5orf34 (UniProt Q96MH7)
inactive: [1] 0 | [4] 0.015 | [9] 0.127 | [13] -0.18 | [14] -0.251 | [15] -0.056 | [16] 0.138 | [17] 0.074

Next entries follow.

C19orf57 (UniProt Q0VDD7)
inactive: [1] -0.185 | [7] 0.07 | [8] -0.017 | [9] 0 | [11] 0.116 | [14] 0.023 | [15] 0.097

C3orf33 (UniProt Q6P1S2)
inactive: [1] 0.295 | [2] -0.043 | [3] -0.04 | [5] 0.063 | [6] -0.056 | [8] 0.216 | [9] 0.045 | [10] 0.047 | [11] -0.166 | [12] 0.124 | [13] -0.084 | [14] 0.224 | [15] 0.115 | [18] -0.13 | [19] -0.111 | [20] 0.006
active: [7] -0.823

CAMSAP3 isoform 2 (UniProt Q9P1Y5)
inactive: [1] 0.009 | [14] -0.073

C9orf72 (UniProt Q96LT7)
inactive: [2] -0.03 | [3] -0.091 | [4] 0.034 | [5] 0.088 | [6] 0.022 | [7] -0.065 | [8] -0.015 | [9] 0.082 | [10] 0.011 | [11] 0.001 | [12] 0 | [13] -0.036 | [15] 0.058 | [16] 0.125 | [18] 0.014 | [19] 0.102 | [20] -0.106
active: [17] 0.259

CARD6 (UniProt Q9BX69)
inactive: [1] 0.08 | [9] -0.113 | [10] -0.05 | [14] 0.087 | [15] 0.051 | [18] -0.004 | [20] -0.288

C11orf74 (UniProt Q86VG3)
inactive: [1] 0.072 | [4] -0.061 | [6] 0.148 | [9] 0.043 | [10] -0.001 | [12] -0.066 | [13] -0.088 | [14] 0.02 | [15] -0.137 | [16] 0.073 | [17] -0.077

C4BPA (UniProt P04003)
inactive: [1] -0.156 | [2] 0.045 | [5] -0.059 | [6] -0.042 | [7] -0.069 | [8] 0.06 | [9] 0.168 | [10] -0.014 | [11] -0.055 | [12] 0.039 | [13] -0.016 | [14] -0.009 | [15] 0.144 | [18] -0.045 | [19] -0.019 | [20] 0.031

C12orf57 (UniProt Q99622)
inactive: [1] -1.08 | [9] -0.077 | [10] -0.047 | [13] -0.099 | [14] 0.019 | [15] -0.309 | [18] 0.11 | [20] -0.195

CAD (UniProt H7BZB3)
inactive: [1] -0.063 | [4] 0.144 | [7] -0.02 | [8] -0.027 | [11] 0.005 | [13] 0.28 | [14] 0.036 | [16] 0.113 | [17] 0.059

CAMK2B (UniProt Q13554)
inactive: [1] 0.011 | [2] -0.058 | [3] 0.014 | [5] -0.145 | [6] 0.022 | [7] -0.021 | [8] 0.049 | [9] -0.077 | [11] 0.318 | [12] -0.035 | [14] 0.009 | [15] -0.069 | [16] -0.045 | [17] 0.067 | [18] 0.001 | [19] -0.005 | [20] 0.026

C12orf4 (UniProt Q9NQ89)
inactive: [2] 0 | [3] 0.112 | [4] -0.124 | [5] -0.02 | [10] 0.072 | [13] -0.218 | [16] -0.06 | [17] 0.176 | [19] 0.165

BTN3A3 (UniProt O00478)
inactive: [1] -0.006 | [3] 0.095 | [6] 0.05 | [7] -0.038 | [8] 0.028 | [9] -0.086 | [10] -0.033 | [11] -0.107 | [12] -0.062 | [13] -0.192 | [14] 0.228 | [15] -0.227 | [18] -0.04 | [20] 0.165

CAPNS1 (UniProt K7ES78)
inactive: [1] 0.143 | [2] -0.07 | [5] 0.033 | [6] 0.076 | [9] 0.12 | [10] -0.071 | [12] -0.074 | [13] 0.001 | [14] 0.035 | [15] -0.068 | [19] -0.083

CAMSAP2 (UniProt Q08AD1)
inactive: [1] 0.135 | [4] -0.085 | [6] 0.132 | [7] -0.282 | [8] -0.011 | [9] -0.033 | [10] 0.041 | [11] 0.078 | [12] 0.084 | [13] -0.035 | [14] -0.007 | [15] -0.043 | [16] 0.01 | [17] 0.077 | [18] -0.346 | [20] -0.068

Reference: the supplement of paper PMC10849652
